Results on 3 substances are retold here after US11135306 (dated 2021).

The nature of the data set: general procedure: solution-phase peptide synthesis; DEPC/DIPEA; p-nitrophenyl carbonate with HOBt/DIPEA/pyridine. The settings on record: for conjugation yield: conjugation step.

In turn, Boc-hydroxylamino-PEG4-Val-Cit-PAB-MMAE displayed a conjugation yield of 41%.
Still for that read-out and setting: next, alkynyl-PEG4-Val-Cit-PAB-MMAE: 45%.
In turn, hydroxylamino-PEG4-Val-Cit-PAB-MMAE came in with a step yield (late stage modification step) of 65%.
